Measurements taken from paper PMC8113555.
These are yes or no findings as the source states them, for the method shown. In cells and extracts the contact can be indirect. A yes stands for co-enrichment or nearness to the bait. Other partners may have been found.

Tests used:
[1] = biological target: TEBP-2::GFP (Telomere-Binding Protein-2, T12E12.3) (C. elegans) (UniProt Q22429); experiment: affinity purification with mass spectrometry; IP of TEBP-2::GFP with GFP-trap magnetic agarose beads from embryo and young adult extracts, quadruplicates, quantitative MS; wash buffer 10 mM Tris/HCl pH 7.5, 150 mM NaCl, 0.5 mM EDTA; 4 °C; also with Sm nuclease
[2] = biological target: TEBP-1::3xFLAG (Telomere-Binding Protein-1, R06A4.2) (C. elegans) (UniProt O62329); experiment: affinity purification with mass spectrometry; IP of TEBP-1::3xFLAG with anti-FLAG M2 antibody and Protein G magnetic beads from embryo and young adult extracts, quadruplicates, quantitative MS; wash buffer 25 mM Tris/HCl pH 7.5, 300 mM NaCl, 1.5 mM MgCl2, 1 mM DTT; 4 °C; also with Sm nuclease

Substance | binding [1] | binding [2]
TEBP-1::3xFLAG (Telomere-Binding Protein-1, R06A4.2) (from UniProt O62329) | binds | 
TEBP-2::GFP (Telomere-Binding Protein-2, T12E12.3) (from UniProt Q22429) |  | binds
